Reference: patent publication US20070243579A1
No constants are given. Whether binding was seen depends on the method and setting. Binding seen in cells or lysates may run through a third protein. Some binding calls cover weakened binding; strength is not graded here. Tags and fused reporters may be left off the sequences shown.

Tests used:
[1] = molecular target: T1, Dbf2 N305A kinase dead (S. cerevisiae) (UniProt P22204); assay: co-expression in yeast, co-purification on glutathione sepharose
T1 sequence (looked up): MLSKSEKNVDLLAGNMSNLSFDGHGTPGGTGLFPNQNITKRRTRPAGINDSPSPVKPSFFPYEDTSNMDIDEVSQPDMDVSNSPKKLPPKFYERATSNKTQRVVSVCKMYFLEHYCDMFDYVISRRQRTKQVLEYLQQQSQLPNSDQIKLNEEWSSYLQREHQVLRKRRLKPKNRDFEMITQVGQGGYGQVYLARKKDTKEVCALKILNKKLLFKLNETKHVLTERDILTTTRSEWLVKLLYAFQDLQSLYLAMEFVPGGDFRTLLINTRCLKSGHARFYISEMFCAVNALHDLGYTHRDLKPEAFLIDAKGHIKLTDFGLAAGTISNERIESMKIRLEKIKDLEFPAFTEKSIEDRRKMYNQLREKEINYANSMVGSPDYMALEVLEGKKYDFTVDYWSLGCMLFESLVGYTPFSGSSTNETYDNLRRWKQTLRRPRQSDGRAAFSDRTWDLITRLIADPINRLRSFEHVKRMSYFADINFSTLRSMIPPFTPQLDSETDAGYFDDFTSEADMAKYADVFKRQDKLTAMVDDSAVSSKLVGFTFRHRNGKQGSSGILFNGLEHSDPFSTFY

[2] = molecular target: T2, untagged Dbf2, wild type (S. cerevisiae) (UniProt P22204); assay: as above
T2 sequence (looked up): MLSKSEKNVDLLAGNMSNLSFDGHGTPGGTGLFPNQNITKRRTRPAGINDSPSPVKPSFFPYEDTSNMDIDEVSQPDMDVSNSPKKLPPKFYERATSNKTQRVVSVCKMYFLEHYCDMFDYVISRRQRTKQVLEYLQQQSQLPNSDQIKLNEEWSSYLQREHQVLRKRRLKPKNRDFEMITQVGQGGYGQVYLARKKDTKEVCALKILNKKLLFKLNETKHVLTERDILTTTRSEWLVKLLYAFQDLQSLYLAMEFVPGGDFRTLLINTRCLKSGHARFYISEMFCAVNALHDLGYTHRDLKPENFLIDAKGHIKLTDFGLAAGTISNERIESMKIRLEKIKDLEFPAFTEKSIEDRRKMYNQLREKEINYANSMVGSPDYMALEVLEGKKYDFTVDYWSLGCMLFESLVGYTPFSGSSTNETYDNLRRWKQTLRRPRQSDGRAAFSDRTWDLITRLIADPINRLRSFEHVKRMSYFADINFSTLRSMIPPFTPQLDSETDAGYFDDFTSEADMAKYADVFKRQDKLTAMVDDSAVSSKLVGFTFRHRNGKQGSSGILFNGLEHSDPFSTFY

[3] = molecular target: T2, untagged Dbf2, wild type (S. cerevisiae); assay: co-expression in mob1-deleted yeast, co-purification on glutathione sepharose

binding [1]: binds | binding [2]: binds | binding [3]: binds
B1: GST-Mob1 (protein, S. cerevisiae, UniProt P40484 1-314, looked up, not shown: a dimerising Fc or GST)
chain: MSFLQNFHISPGQTIRSTRGFKWNTANAANNAGSVSPTKATPHNNTINGNNNNANTINNRADFTNNPVNGYNESDHGRMSPVLTTPKRHAPPPEQLQNVTDFNYTPSHQKPFLQPQAGTTVTTHQDIKQIVEMTLGSEGVLNQAVKLPRGEDENEWLAVHCVDFYNQINMLYGSITEFCSPQTCPRMIATNEYEYLWAFQKGQPPVSVSAPKYVECLMRWCQDQFDDESLFPSKVTGTFPEGFIQRVIQPILRRLFRVYAHIYCHHFNEILELNLQTVLNTSFRHFCLFAQEFELLRPADFGPLLELVMELRDR
